According to the M2OR odorant receptor database:
Residue numbers refer to the chain shown, from its start. The entries are a selection whose mix differs from that of the whole data set. The calls were merged from several studies; some rest on single wells. The list shows a part of the results.

Chains of the proteins cited; added tags and fusions are not shown. Where a name states a change or a piece, a line headed by the entry shows the natural chain unless it says otherwise. Chains listed by the source or under a name are the forms on record and can include a tag or linker.
UniProt Q8NH64: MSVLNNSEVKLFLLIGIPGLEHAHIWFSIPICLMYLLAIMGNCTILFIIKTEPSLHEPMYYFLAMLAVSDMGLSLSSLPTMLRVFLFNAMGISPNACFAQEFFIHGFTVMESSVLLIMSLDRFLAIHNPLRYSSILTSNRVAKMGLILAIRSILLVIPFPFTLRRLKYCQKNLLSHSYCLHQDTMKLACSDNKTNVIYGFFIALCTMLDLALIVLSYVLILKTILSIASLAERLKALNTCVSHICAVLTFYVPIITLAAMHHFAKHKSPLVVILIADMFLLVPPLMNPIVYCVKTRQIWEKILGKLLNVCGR
UniProt Q9Y5P0: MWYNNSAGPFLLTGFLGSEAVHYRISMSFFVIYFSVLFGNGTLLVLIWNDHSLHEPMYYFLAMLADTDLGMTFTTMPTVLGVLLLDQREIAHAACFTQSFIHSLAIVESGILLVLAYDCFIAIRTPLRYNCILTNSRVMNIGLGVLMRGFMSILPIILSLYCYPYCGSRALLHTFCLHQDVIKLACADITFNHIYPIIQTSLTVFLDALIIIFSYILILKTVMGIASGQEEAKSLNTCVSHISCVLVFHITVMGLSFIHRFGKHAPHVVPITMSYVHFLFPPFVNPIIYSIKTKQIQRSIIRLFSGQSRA
OR4N5, as listed by the source: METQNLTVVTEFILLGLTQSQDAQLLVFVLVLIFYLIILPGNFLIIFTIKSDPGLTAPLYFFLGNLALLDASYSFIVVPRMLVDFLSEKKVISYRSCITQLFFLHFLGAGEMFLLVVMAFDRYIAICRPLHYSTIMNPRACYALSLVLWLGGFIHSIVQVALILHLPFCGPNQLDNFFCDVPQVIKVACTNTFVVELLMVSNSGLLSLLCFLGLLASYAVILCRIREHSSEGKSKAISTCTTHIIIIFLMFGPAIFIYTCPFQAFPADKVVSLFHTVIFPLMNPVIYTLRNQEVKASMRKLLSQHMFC
OR4N2, as listed by the source: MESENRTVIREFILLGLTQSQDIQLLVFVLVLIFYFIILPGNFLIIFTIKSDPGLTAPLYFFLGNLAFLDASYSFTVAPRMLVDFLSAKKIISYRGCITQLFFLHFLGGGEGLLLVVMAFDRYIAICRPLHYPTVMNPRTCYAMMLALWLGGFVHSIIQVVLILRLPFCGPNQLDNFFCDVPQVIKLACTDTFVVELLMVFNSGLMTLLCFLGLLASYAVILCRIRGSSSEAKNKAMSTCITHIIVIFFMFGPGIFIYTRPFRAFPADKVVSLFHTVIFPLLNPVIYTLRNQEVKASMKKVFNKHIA

Assays:
Details in all cases: stereoisomer not certain
[1] = tested on: OR4N2
How it was run: (§1)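 Whether a receptor–molecule pair is responsive (active) rests on the original authors' judgment that its measured signal was statistically different from baseline. Pairs without that judgment are non-responsive (inactive). Sources used varied assay methods, commonly transient luciferase assays in mammalian cell lines.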

[2] = molecular target: T1, OR4N4 (Homo sapiens) (UniProt Q8N0Y3)
T1 sequence (whole entry): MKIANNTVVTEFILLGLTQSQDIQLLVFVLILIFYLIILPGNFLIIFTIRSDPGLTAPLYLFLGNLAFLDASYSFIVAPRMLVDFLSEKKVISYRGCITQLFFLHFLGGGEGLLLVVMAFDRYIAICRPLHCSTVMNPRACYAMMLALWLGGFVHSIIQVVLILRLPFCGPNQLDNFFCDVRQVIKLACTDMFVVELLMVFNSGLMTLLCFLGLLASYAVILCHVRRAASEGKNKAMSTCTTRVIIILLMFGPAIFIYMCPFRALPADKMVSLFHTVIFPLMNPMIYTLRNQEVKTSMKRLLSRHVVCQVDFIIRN
How it was run: as §1

[3] = molecular target: T2, OR4N5 (Homo sapiens) (UniProt Q8IXE1)
T2 sequence (whole entry): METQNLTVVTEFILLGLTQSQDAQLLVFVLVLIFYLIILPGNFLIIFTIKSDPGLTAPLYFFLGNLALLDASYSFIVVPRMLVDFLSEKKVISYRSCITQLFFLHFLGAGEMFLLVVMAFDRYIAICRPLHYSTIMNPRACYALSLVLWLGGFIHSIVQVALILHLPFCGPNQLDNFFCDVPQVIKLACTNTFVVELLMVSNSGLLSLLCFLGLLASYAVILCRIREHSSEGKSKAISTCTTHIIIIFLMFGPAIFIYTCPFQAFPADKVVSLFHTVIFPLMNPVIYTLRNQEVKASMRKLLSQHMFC
How it was run: as §1

[4] = tested on: T3, OR4P4
T3 sequence (whole entry): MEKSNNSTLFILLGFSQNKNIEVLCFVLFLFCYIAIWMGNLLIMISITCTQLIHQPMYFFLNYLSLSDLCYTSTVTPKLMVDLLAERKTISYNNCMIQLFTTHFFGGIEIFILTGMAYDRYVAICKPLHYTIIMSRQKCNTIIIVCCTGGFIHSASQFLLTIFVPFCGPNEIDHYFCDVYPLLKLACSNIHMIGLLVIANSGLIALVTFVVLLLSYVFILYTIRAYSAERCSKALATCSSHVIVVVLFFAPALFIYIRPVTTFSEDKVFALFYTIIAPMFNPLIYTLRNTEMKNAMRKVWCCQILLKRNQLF
How it was run: as §1

[5] = tested on: T4, OR4P4; remark: listed apart in the source
T4 sequence (whole entry): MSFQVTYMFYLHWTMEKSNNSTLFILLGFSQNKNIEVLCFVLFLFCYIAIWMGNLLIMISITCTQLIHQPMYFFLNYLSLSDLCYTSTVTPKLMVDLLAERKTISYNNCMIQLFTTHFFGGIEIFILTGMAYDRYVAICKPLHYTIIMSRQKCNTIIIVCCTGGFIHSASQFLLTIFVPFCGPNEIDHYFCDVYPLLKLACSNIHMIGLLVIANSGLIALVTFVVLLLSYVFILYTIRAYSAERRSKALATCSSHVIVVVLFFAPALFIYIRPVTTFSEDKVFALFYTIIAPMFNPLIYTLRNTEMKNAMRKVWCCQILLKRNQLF
How it was run: as §1

[6] = molecular target: T5, OR4Q3 (Homo sapiens) (UniProt Q8NH05)
T5 sequence (whole entry): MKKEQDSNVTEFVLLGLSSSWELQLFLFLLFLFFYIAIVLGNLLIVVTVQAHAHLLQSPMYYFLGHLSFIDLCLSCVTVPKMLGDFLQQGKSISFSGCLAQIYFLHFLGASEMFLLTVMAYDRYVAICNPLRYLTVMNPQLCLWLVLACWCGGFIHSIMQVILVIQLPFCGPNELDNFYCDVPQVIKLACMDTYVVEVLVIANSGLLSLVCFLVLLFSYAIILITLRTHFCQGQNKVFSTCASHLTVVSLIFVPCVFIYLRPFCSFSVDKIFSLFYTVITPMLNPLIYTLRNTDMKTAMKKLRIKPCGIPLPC
How it was run: as §1

[7] = molecular target: T6, OR4S1 (Homo sapiens) (UniProt Q8NGB4)
T6 sequence (whole entry): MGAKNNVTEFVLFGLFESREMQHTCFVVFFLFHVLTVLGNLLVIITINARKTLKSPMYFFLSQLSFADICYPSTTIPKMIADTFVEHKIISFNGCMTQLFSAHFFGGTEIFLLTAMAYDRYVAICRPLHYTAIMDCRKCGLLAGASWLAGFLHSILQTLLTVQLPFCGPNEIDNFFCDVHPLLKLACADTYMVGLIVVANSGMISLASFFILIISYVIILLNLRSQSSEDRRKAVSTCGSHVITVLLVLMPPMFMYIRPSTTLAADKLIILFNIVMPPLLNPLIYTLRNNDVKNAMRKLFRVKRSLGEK
How it was run: as §1

[8] = molecular target: T7, OR4S2 (Homo sapiens) (UniProt Q8NH73)
T7 sequence (whole entry): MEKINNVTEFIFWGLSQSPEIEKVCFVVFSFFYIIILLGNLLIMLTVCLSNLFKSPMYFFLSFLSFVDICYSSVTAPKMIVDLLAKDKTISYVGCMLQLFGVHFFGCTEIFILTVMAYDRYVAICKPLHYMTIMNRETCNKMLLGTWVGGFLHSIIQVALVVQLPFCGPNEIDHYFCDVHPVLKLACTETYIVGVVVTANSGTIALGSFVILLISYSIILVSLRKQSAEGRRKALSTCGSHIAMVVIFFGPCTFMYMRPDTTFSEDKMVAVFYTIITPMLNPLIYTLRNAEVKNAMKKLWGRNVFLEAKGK
How it was run: as §1

[9] = tested on: T8, OR4X1
T8 sequence (whole entry): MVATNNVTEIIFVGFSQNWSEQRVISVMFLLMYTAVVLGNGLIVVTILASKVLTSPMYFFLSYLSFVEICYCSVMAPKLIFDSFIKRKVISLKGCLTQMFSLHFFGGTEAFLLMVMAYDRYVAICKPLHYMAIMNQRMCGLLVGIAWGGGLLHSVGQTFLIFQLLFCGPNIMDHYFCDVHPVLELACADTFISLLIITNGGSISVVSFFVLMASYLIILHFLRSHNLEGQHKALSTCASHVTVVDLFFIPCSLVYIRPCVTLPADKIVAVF
How it was run: as §1

[10] = molecular target: T9, OR4X2 (Homo sapiens) (UniProt Q8NGF9)
T9 sequence (whole entry): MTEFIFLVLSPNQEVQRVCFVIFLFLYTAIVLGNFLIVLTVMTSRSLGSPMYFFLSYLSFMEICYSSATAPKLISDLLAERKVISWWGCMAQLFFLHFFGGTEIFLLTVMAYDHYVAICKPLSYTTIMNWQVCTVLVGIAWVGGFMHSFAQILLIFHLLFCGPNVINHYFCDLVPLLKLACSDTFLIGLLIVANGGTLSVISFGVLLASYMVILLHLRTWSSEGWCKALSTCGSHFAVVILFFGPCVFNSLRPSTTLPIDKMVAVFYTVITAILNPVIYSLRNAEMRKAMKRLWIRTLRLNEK
How it was run: as §1

[11] = molecular target: T10, OR51A2 (Homo sapiens) (UniProt Q8NGJ7)
T10 sequence (whole entry): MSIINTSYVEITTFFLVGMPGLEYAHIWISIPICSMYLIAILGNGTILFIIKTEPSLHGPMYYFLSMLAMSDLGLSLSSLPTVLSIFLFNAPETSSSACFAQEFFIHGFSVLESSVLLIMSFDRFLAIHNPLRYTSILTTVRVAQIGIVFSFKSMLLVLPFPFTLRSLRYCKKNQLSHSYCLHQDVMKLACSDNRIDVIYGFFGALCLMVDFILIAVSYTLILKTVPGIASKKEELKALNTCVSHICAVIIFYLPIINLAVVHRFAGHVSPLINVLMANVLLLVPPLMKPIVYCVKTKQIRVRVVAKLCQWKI
How it was run: as §1

[12] = molecular target: T11, OR51B2 (Homo sapiens) (UniProt Q9Y5P1)
T11 sequence (whole entry): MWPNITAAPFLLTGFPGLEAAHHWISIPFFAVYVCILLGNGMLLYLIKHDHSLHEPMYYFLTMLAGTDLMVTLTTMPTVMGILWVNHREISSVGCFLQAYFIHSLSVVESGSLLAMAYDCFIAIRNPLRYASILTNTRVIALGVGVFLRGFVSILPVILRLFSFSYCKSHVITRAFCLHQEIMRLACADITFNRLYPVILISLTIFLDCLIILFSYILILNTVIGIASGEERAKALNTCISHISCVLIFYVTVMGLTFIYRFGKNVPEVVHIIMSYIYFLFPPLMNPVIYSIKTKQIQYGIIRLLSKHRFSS
How it was run: as §1

[13] = molecular target: T12, OR51A4 (Homo sapiens) (UniProt Q8NGJ6)
T12 sequence (whole entry): T10 sequence (whole entry) with G59E, T94I, S97N, S167N, P227L, E235Q, G267R, M288T, K289N, W311R
How it was run: as §1

[14] = molecular target: OR51A7 (Homo sapiens) (UniProt Q8NH64)
How it was run: as §1

[15] = molecular target: OR51B4 (Homo sapiens) (UniProt Q9Y5P0)
How it was run: as §1

[16] = molecular target: T13, OR51B5 (Homo sapiens) (UniProt Q9H339)
T13 sequence (whole entry): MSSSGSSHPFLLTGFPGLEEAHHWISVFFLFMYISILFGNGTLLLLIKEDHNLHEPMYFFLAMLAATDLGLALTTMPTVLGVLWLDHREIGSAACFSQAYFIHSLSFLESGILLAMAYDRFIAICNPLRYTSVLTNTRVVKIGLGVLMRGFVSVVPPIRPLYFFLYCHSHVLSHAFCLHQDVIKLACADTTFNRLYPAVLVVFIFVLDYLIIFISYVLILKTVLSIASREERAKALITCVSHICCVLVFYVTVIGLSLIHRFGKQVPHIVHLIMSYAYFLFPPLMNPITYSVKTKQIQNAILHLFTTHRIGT
How it was run: as §1

[17] = tested on: OR4N5
How it was run: as §1

Measured: odorant receptor agonist call;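 note: active if original authors judged signal statistically different from baseline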

C=CCc1ccc(OC)c(OC)c1
not listed: [13] | [14] | [15] | [16] | [17]
inactive: all other assays above

CC(C)CC(=O)O
not listed: [1] | [13] | [14] | [15] | [16] | [17]
inactive: all other assays above

O=C1CCCCCCCCCCCCCCO1
not listed: [1] | [13] | [14] | [15] | [16] | [17]
inactive: all other assays above

CC(=O)C(C)=O
not listed: [1] | [17]
inactive: all other assays above

COC(=O)c1ccccc1
inactive: [2] | [3] | [4] | [5] | [6] | [7] | [8] | [9] | [10]

CCCCCCCCCC=O
not listed: [1] | [13] | [14] | [15] | [16]
inactive: all other assays above
